Experimental data: paper PMC8834516

Each binder was assayed against T1, Transglutaminase-2 (mouse (endogenous in mouse brain)) (UniProt P21981) (assay: affinity purification with mass spectrometry; TG2 immunoprecipitated from total brain homogenates of 18-month-old WT and APP23 mice with anti-TG2 antibody IA12 crosslinked to protein A/G magnetic beads, 22 h at 4 °C; IP lysis buffer 25 mM Tris pH 7.4, 150 mM NaCl, 1 mM EDTA, 1% NP40, 5% glycerol; on-bead trypsin digest, SWATH MS; TG2−/− cohorts as background, z-test p ≤ 0.05, n = 5 per cohort).
T1 sequence: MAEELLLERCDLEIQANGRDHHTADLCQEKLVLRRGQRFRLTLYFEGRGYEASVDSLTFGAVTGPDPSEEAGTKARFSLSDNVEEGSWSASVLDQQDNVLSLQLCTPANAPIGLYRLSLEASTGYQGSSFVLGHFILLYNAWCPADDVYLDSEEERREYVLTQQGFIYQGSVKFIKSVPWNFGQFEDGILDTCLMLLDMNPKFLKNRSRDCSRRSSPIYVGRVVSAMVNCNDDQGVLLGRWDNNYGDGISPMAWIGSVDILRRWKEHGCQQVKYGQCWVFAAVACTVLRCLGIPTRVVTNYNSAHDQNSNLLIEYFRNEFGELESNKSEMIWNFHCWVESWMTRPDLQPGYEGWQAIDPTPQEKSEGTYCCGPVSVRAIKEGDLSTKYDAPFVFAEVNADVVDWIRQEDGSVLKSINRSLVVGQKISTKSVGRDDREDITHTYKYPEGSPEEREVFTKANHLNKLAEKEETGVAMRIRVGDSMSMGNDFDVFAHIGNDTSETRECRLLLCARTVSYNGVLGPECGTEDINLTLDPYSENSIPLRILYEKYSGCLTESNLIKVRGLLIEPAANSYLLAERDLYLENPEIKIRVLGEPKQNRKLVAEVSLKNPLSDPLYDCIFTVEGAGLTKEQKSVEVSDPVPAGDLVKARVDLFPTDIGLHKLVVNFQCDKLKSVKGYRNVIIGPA

Row | Binder | binding
1 | Semaphorin-3C (protein, UniProt Q62181 21-751) GSSQPQARVYLTFDELRETKTSEYFSLSHQQLDYRILLMDEDQDRIYVGSKDHILSLNINNISQEPLSVFWPASTIKVEECKMAGKDPTHGCGNFVRVIQTFNRTHLYVCGSGAFSPVCTYLNRGRRSEDQVFMIDSKCESGKGRCSFNPNVNTVSVMINEELFSGMYIDFMGTDAAIFRSLTKRNAVRTDQHNSKWLSEPMFVDAHVIPDGTDPNDAKVYFFFKERLTDNNRSTKQIHSMIARICPNDTGGQRSLVNKWTTFLKARLVCSVTDEDGPETHFDELEDVFLLETDNPRTTLVYGIFTTSSSVFKGSAVCVYHLSDIQTVFNGPFAHKEGPNHQLISYQGRIPYPRPGTCPGGAFTPNMRTTKDFPDDVVTFIRNHPLMYNSIYPIHRRPLIVRIGTDYKYTKIAVDRVNAADGRYHVLFLGTDRGTVQKVVVLPTNSSASGELILEELEVFKNHVPITTMKISSKKQQLYVSSNEGVSQVSLHRCHIYGTACADCCLARDPYCAWDGHSCSRFYPTGKRRSRRQDVRHGNPLTQCRGFNLKAYRNAAEIVQYGVRNNSTFLECAPKSPQASIKWLLQKDKDRRKEVKLNERIIATSQGLLIRSVQDSDQGLYHCIATENSFKQTIAKINFKVLDSEMVAVVTDKWSPWTWAGSVRALPFHPKDILGAFSHSEMQLINQYCKDTRQQQQLGEEPQKMRGDYGKLKALINSRKSRNRRNQLPES | binds
2 | Myelin proteolipid protein (protein, UniProt P60202 1-277) MGLLECCARCLVGAPFASLVATGLCFFGVALFCGCGHEALTGTEKLIETYFSKNYQDYEYLINVIHAFQYVIYGTASFFFLYGALLLAEGFYTTGAVRQIFGDYKTTICGKGLSATVTGGQKGRGSRGQHQAHSLERVCHCLGKWLGHPDKFVGITYALTVVWLLVFACSAVPVYIYFNTWTTCQSIAFPSKTSASIGSLCADARMYGVLPWNAFPGKVCGSNLLSICKTAEFQMTFHLFIAAFVGAAATLVSLLTFMIAATYNFAVLKLMGRGTKF | binds
3 | Fibrinogen gamma chain (protein, UniProt Q8VCM7 26-436) YVATRDNCCILDERFGSFCPTTCGIADFLSSYQTDVDNDLRTLEDILFRAENRTTEAKELIKAIQVYYNPDQPPKPGMIDSATQKSKKMVEEIVKYEALLLTHETSIRYLQEIYNSNNQKITNLKQKVAQLEAQCQEPCKDSVQIHDTTGKDCQEIANKGAKESGLYFIRPLKAKQQFLVYCEIDGSGNGWTVLQKRIDGSLDFKKNWIQYKEGFGHLSPTGTTEFWLGNEKIHLISMQSTIPYALRIQLKDWNGRTSTADYAMFRVGPESDKYRLTYAYFIGGDAGDAFDGYDFGDDPSDKFFTSHNGMQFSTWDNDNDKFEGNCAEQDGSGWWMNKCHAGHLNGVYHQGGTYSKSSTTNGFDDGIIWATWKSRWYSMKETTMKIIPFNRLSIGEGQQHHMGGSKQAGDV | binds
4 | Ubiquitin carboxyl-terminal hydrolase CYLD (protein, UniProt Q80TQ2 1-952) MSSGLWSQEKVTSPYWEERIFYLLLQECSVTDKQTQKLLKVPKGSIGQYIQDRSVGHSRVPSTKGKKNQIGLKILEQPHAVLFVDEKDVVEINEKFTELLLAITNCEERLSLFRNRLRLSKGLQVDVGSPVKVQLRSGEEKFPGVVRFRGPLLAERTVSGIFFGVELLEEGRGQGFTDGVYQGKQLFQCDEDCGVFVALDKLELIEDDDNGLESDFAGPGDTMQVEPPPLEINSRVSLKVGESTESGTVIFCDVLPGKESLGYFVGVDMDNPIGNWDGRFDGVQLCSFASVESTILLHINDIIPDSVTQERRPPKLAFMSRGVGDKGSSSHNKPKVTGSTSDPGSRNRSELFYTLNGSSVDSQQSKSKNPWYIDEVAEDPAKSLTEMSSDFGHSSPPPQPPSMNSLSSENRFHSLPFSLTKMPNTNGSMAHSPLSLSVQSVMGELNSTPVQESPPLPISSGNAHGLEVGSLAEVKENPPFYGVIRWIGQPPGLSDVLAGLELEDECAGCTDGTFRGTRYFTCALKKALFVKLKSCRPDSRFASLQPVSNQIERCNSLAFGGYLSEVVEENTPPKMEKEGLEIMIGKKKGIQGHYNSCYLDSTLFCLFAFSSALDTVLLRPKEKNDIEYYSETQELLRTEIVNPLRIYGYVCATKIMKLRKILEKVEAASGFTSEEKDPEEFLNILFHDILRVEPLLKIRSAGQKVQDCNFYQIFMEKNEKVGVPTIQQLLEWSFINSNLKFAEAPSCLIIQMPRFGKDFKLFKKIFPSLELNITDLLEDTPRQCRICGGLAMYECRECYDDPDISAGKIKQFCKTCSTQVHLHPRRLNHSYHPVSLPKDLPDWDWRHGCIPCQKMELFAVLCIETSHYVAFVKYGKDDSAWLFFDSMADRDGGQNGFNIPQVTPCPEVGEYLKMSLEDLHSLDSRRIQGCARRLLCDAYMCMYQSPTMSLYK | binds
5 | Copine-5 (protein, UniProt Q8JZW4 1-593) MEQPEDMASLSEFDSLAGSIPATKVEITVSCRNLLDKDMFSKSDPLCVMYTQGMENKQWREFGRTEVIDNTLNPDFVRKFIVDYFFEEKQNLRFDLYDVDSKSPDLSKHDFLGQAFCTLGEIVGSSGSRLEKPLTIGTFSLNSRTGKPMPAVSNGGVPGKKCGTIILSAEELSNCRDVATMQFCANKLDKKDFFGKSDPFLVFYRSNEDGTFTICHKTEVMKNTLNPVWQTFSIPVRALCNGDYDRTIKVEVYDWDRDGSHDFIGEFTTSYRELARGQSQFNIYEVINPKKKMKKKKYVNSGTVTLLSFAVESESTFLDYIKGGTQINFTVAIDFTASNGNPSQSTSLHYMSPYQLNAYALALTAVGEIIQHYDSDKMFPALGFGAKLPPDGRVSHEFPLNGNQENPSCCGIDGILEAYHSSLRTVQLYGPTNFAPVVTHVARNAAAVQDGSQYSVLLIITDGVISDMAQTKEAIVNAAKLPMSIIIVGVGQAEFDAMVELDGDDVRISSRGKLAERDIVQFVPFRDYVDRTGNHVLSMARLARDVLAEIPDQLVSYMKAQGIRPRPPPAAPAQSPPQSPAHSPPGSPVHTHI | binds
6 | Ras suppressor protein 1 (protein, UniProt Q01730 1-277) MSKSLKKLVEESREKNQPEVDMSDRGISSMLDVNGLFSLAHITQLVLSHNKLTTVPPNVAELKNLEVLNFFNNQIEELPTQISSLQKLKHLNLGMNRLNTLPRGFGSSRLLEVLELTYNNLNEHSLPGNFFYLTTLRALYLSDNDFEILPPDIGKLTKLQILSLRDNDLISLPKEIGELTQLKELHIQGNRLTVLPPELGNLDLTGQKQVFKAENNPWVTPIADQFQLGVSHVFEYIRSETYKYLYGRHMQANPEPPKKNNDKSKKISRKPLAAKNK | binds

No constants are given. Whether binding was seen depends on the method and setting. Binding seen in cells or lysates may run through a third protein. A yes stands for co-enrichment or nearness to the bait. Other partners may have been found.
